According to paper doi:10.1101/2022.09.23.509143:
The exact form of at least one protein or probe is not confirmed. Where a protein sequence is shown, tags need not be part of it.

Tested on: T1, LexA (AnLexA) (Anabaena sp. PCC7120)
T1 sequence (looked up, limits assumed): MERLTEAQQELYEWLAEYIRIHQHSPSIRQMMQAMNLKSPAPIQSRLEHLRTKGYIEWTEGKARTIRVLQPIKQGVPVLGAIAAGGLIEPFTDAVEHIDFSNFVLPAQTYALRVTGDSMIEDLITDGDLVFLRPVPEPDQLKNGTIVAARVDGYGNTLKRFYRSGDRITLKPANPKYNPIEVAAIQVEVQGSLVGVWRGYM
Assay: EMSA
Settings: 62 nM LexA; probe letters rebuilt from the primers and the genome

| Sequence | binding result |
| --- | --- |
| TAGTTGTGTTGTAAGAATGCCTACAGTAATTTAAAAATGTATATGATGTGTATACATTTTTTTGTGTATTTTGTAGTTCCAGGAAAAATGTAAAATTCTAAACATGAATATAGCCTAAATATTATAGTTATTCCTAACAAAAATTCCAGCTAAAAATTTCACCCAAATTTCATATCGATATGAAACACTGGAAAAAGACTACTATTCAAATTCCTTAAACTACTCACAAAAGCAATGTAACTAGCTAAAGAAAGCGGTAGTCCAAATTTGCACATTAAATGCCAACATCCGGCGATTCTGCTTTCTCACTAACTTAGGACACAACAAGCG (double strand) [all7619 upstream region] | binds |
| TGACTAAACGCATAGCTTTCAATAACCGCAGCTGATGACAAACAGCTGATTCACTCATTTTGGTTAATGCAGCTAGATCGCAAACACACAACTCACTAGAAGCCAAAGCTGATAGGAGGCGTATACGGTTTGTATCTGCTAACACCCCAAAAATTTCTGCCATTTGTTGTGCTTTATCTGTCGGTAAGATTTGAGCCTGAGATGAGCGTACATTATCTAGATGCACCAGATGAGTATCACAGGTAGGGGTATCAGAACTTTGAATTAAGTCTAAGTCCTGCTTTTTCTTGTGCTTATTCATAGCAAGTTTTACTTAGCAATAGTTATCAATCTCAATAATACCTAAA (double strand) [aztA upstream region] | binds |
